Measured values from publication PMC8264664.
No constants are given. Whether binding was seen depends on the method and setting. Binding seen in cells or lysates may run through a third protein. Some binding calls cover weakened binding; strength is not graded here. Sequences can lack the tags named with a protein.

Assays:
[1] = molecular target: T1, FLAG-MTBP (MDM2 binding protein), in HEK293 cells (UniProt Q96DY7); assay: co-IP; HEK293 cells co-transfected with HA-PXR and FLAG-MTBP; which protein was precipitated is not told
T1 sequence: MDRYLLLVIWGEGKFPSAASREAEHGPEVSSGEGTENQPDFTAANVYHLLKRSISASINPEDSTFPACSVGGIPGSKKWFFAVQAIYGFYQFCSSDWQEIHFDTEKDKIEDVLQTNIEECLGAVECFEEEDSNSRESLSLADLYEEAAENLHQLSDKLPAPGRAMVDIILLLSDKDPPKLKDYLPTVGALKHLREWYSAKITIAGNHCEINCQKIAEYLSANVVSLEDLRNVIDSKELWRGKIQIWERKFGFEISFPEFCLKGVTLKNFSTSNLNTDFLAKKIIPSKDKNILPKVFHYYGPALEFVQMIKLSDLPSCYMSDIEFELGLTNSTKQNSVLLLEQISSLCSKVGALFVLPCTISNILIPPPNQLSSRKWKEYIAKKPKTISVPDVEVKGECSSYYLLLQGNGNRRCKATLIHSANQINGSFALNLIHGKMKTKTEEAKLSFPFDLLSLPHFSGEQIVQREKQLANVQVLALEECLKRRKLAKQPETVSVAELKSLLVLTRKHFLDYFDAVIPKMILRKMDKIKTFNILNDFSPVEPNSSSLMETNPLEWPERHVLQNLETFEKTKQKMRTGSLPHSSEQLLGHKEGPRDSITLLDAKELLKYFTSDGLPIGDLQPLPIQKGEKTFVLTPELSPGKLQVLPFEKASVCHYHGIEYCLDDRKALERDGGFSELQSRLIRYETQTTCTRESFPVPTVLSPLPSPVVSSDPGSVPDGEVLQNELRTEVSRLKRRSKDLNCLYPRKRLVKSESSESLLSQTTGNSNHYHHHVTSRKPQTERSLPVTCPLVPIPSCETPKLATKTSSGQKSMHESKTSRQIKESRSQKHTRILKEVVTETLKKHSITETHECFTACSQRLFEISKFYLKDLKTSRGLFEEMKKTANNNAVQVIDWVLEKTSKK

[2] = molecular target: T2, FLAG-MTBP (MDM2 binding protein), in MHCC97-H cells (UniProt Q96DY7); assay: co-IP; MHCC97-H cells transfected with FLAG-MTBP; which protein was precipitated is not told
T2 sequence: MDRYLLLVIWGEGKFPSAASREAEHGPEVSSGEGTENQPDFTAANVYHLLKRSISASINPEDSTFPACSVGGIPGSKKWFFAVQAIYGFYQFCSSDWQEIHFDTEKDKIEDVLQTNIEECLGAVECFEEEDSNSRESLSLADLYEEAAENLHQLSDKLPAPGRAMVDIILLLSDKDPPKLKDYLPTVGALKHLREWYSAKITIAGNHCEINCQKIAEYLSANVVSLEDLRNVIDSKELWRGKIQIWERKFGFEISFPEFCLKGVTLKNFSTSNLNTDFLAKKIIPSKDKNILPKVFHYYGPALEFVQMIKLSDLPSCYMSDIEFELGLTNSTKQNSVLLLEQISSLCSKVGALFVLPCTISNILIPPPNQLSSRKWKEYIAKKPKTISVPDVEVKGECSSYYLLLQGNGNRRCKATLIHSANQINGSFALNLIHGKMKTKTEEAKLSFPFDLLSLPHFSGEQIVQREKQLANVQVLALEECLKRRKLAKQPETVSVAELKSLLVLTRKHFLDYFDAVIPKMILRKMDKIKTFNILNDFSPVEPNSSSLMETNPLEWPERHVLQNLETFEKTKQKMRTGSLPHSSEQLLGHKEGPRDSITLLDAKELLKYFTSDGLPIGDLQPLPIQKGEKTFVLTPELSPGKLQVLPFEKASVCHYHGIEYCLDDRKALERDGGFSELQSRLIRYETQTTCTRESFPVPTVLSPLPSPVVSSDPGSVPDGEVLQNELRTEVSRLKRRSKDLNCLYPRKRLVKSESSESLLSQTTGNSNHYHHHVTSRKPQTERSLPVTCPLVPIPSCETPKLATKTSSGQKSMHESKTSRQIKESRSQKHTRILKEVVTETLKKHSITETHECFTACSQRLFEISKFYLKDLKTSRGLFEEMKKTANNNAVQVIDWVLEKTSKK

Row | Binder | binding [1] | binding [2]
1 | HA-PXR (Pregnane X receptor), in HEK293 cells (protein, UniProt O75469 1-434) MEVRPKESWNHADFVHCEDTESVPGKPSVNADEEVGGPQICRVCGDKATGYHFNVMTCEGCKGFFRRAMKRNARLRCPFRKGACEITRKTRRQCQACRLRKCLESGMKKEMIMSDEAVEERRALIKRKKSERTGTQPLGVQGLTEEQRMMIRELMDAQMKTFDTTFSHFKNFRLPGVLSSGCELPESLQAPSREEAAKWSQVRKDLCSLKVSLQLRGEDGSVWNYKPPADSGGKEIFSLLPHMADMSTYMFKGIISFAKVISYFRDLPIEDQISLLKGAAFELCQLRFNTVFNAETGTWECGRLSYCLEDTAGGFQQLLLEPMLKFHYMLKKLQLHEEEYVLMQAISLFSPDRPGVLQHRVVDQLQEQFAITLKSYIECNRPQPAHRFLFLKIMAMLTELRSINAQHTQRLLRIQDIHPFATPLMQELFGITGS | binds | 
2 | PXR (Pregnane X receptor) in MHCC97-H cells (protein, UniProt O75469 1-434) MEVRPKESWNHADFVHCEDTESVPGKPSVNADEEVGGPQICRVCGDKATGYHFNVMTCEGCKGFFRRAMKRNARLRCPFRKGACEITRKTRRQCQACRLRKCLESGMKKEMIMSDEAVEERRALIKRKKSERTGTQPLGVQGLTEEQRMMIRELMDAQMKTFDTTFSHFKNFRLPGVLSSGCELPESLQAPSREEAAKWSQVRKDLCSLKVSLQLRGEDGSVWNYKPPADSGGKEIFSLLPHMADMSTYMFKGIISFAKVISYFRDLPIEDQISLLKGAAFELCQLRFNTVFNAETGTWECGRLSYCLEDTAGGFQQLLLEPMLKFHYMLKKLQLHEEEYVLMQAISLFSPDRPGVLQHRVVDQLQEQFAITLKSYIECNRPQPAHRFLFLKIMAMLTELRSINAQHTQRLLRIQDIHPFATPLMQELFGITGS |  | binds
